Assay results: patent US10172825B2, “Pharmacological treatment of cognitive impairment” (priority 2006, dated 2019)

Test system: Ts65Dn mice
Assay: Two-object based object recognition task
Format: in vivo, mouse
Conditions: WT and Ts65Dn mice
Text: The object recognition task, a behavioral assay not requiring explicit rule learning or prolonged training, is based on the innate tendency of mice to differentially explore novel objects over familiar ones. Animals are submitted to daily handling sessions and are given an opportunity to habituate to a black acrylic, boxed enclosure, where they are exposed to two different objects during a 15-min training session. […] All are generally consistent in height and volume, and are symmetrical on a horizontal plane. They are set in two corners of the apparatus, positioned across from one another along its diameter. Subsequently, a 15-min. testing session is conducted 24 h after training. Here, the mice are presented with the object they had explored the previous day, and a new item (the objects being alternatively positioned in one corner or another in a balanced fashion).
Memory is operationally defined as the proportion of time animals spend investigating the novel object minus the proportion spent investigating the familiar one (Discrimination Index, DI=[Novel Object Exploration Time/Total Exploration Time−Familiar Object Exploration Time/Total Exploration Time]×100), where exploration constitutes any investigative behavior (i.e., head orientation, sniffing) or deliberate contact (i.e. rearing, licking) that occurs with each object. Behavioral trials are recorded by a tripod-mounted digital camera. Importantly, the object recognition task can be used repeatedly to evaluate rodent memory across time, and across various drug treatment regiments. […] Finally, all behavioral data are analyzed by Student's unpaired t tests. […]
The present experiment was carried out in a longitudinal, cross-over fashion, submitting four cohorts of WT and Ts65Dn experiment al pairs to a 4-week testing schedule. […] DI values are expressed as mean±SEM.
The animals were randomly assigned to groups receiving daily servings of chocolate milk or Metrazol (3 mg/kg), and were submitted to two repetitions of object recognition testing. […] DI values are expressed as mean±SEM.

[1] = training and testing periods, 4-week schedule (FIG. 3B)

| Compound | Total object exploration (milk or milk-MTZ, training and testing periods (FIG. 5A)) | Total object exploration [1] |
| --- | --- | --- |
| C1CCc2nnnn2CC1 [Metrazol, pentamethylenetetrazol] | unaffected by genotype or by milk-MTZ treatment |  |
| CC(C)(C)[C@]1(O)C[C@@H]2OC(=O)C[C@@]23C(=O)O[C@@H]2OC(=O)[C@H](O)[C@]213 [bilobalide, Bilobalide] |  | not influenced by genotype or by treatment regiment |
| Picrotoxin [PTX] |  | not influenced by genotype or by treatment regiment |
